The target of this test is T1, PDK1 50-359 [Tyr288Gly; Gln292Ala] (human) (UniProt O15530).
T1 sequence: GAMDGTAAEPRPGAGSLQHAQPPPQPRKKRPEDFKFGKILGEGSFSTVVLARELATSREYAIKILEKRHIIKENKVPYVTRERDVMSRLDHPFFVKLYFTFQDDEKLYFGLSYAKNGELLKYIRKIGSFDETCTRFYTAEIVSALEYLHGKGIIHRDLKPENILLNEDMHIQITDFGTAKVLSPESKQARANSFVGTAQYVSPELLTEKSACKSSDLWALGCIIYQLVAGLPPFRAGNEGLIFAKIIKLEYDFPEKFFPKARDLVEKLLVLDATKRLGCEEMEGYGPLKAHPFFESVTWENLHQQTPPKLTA
As to the kind of experiment: co-crystal structure PDK1-33 (crystal form IV).

Results are given in words; binding and its absence hold for the method and conditions named. Some entries that bind do so weakly or less than the wild type.

B1: HM-peptide derived from PKB sequence (peptide)
peptide: KGAGGGGFPQFSYSA
Turning to B1, the binding entry was “binds”.

The values are drawn from patent US20120003668A1, “HIGH RESOLUTION COMPLEX STRUCTURE AND ALLOSTERIC EFFECTS OF LOW MOLECULAR WEIGHT ACTIVATORS ON THE PROTEIN KINASE PDK1” (UNIVERSITAET DES SAARLANDES, priority 2008, published 2012).
